Data source: PubChem BioAssay AID1224826 (NIAID, 2016)

Aim: 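Regulators of Tlr4 signalling leading to Tnf-alpha expression in macrophages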 (primary screen)
System: RAW264.7 G9 macrophages from mouse bearing reporters for p65 (GFP) and the Tnf promoter (mCherry)
Reagent: siRNA pool against mouse genes, 100 nM
Time to read-out: 16 h of LPS stimulation, after 2 days of siRNA transfection
Treatment: bacterial lipopolysaccharide (Salmonella minnesota R595), 10 ng/ml
Measured: 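Nuclear mCherry signal of the Tnf promoter reporter measured by imaging after background removal, scaled to each plate median and turned into robust z-scores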
Direction: Tnf reporter robust z-score: higher = stronger Tnf promoter reporter signal after LPS
Active means: 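Called active when robust z-score is at most -1.3, matching the median of the Tlr4 knock-down control, or over 3; control wells and wells with under 50 cells never active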
Meaning of the calls: active = Tnf reporter clearly lowered or raised; inactive = no clear change in Tnf reporter
The deposit covers about 17,000 reagents; shown is a part drawn at random. About 1,110 of them (6.6%) were called active. 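Active means lowered or raised reporter signal; replicate intensities are raw and not normalised per plate.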 Further read-outs or replicates are left out here. No sequences are given here.

Jade1 (jade family PHD finger 1)
- Tnf reporter robust z-score: 0.98
- fewer than 50 cells in well: enough cells in well
- Outcome: inactive

F630111L10Rik (RIKEN cDNA F630111L10 gene)
- Tnf reporter robust z-score: 0.21
- fewer than 50 cells in well: enough cells in well
- Outcome: inactive

Arhgef26 (Rho guanine nucleotide exchange factor 26)
- fewer than 50 cells in well: fewer than 50 cells per well; well left out of calls
- Outcome: inactive

Ankrd40 (ankyrin repeat domain 40)
- Tnf reporter robust z-score: -0.64
- fewer than 50 cells in well: enough cells in well
- Outcome: inactive

Ccdc163 (coiled-coil domain containing 163)
- Tnf reporter robust z-score: -0.14
- fewer than 50 cells in well: enough cells in well
- Outcome: inactive

Tnpo2 (transportin 2 (importin 3, karyopherin beta 2b))
- fewer than 50 cells in well: fewer than 50 cells per well; well left out of calls
- Outcome: inactive

Entries above whose gene name starts with A or a (2):
Arhgef26 (Rho guanine nucleotide exchange factor 26)
- fewer than 50 cells in well: fewer than 50 cells per well; well left out of calls
- Outcome: inactive

Ankrd40 (ankyrin repeat domain 40)
- Tnf reporter robust z-score: -0.64
- fewer than 50 cells in well: enough cells in well
- Outcome: inactive

Continued:
Odf4 (outer dense fiber of sperm tails 4)
- Tnf reporter robust z-score: -0.93
- fewer than 50 cells in well: enough cells in well
- Outcome: inactive

Flt1 (FMS-like tyrosine kinase 1)
- Tnf reporter robust z-score: -0.33
- fewer than 50 cells in well: enough cells in well
- Outcome: inactive

Chst4 (carbohydrate sulfotransferase 4)
- Tnf reporter robust z-score: -0.58
- fewer than 50 cells in well: enough cells in well
- Outcome: inactive

Cpm (carboxypeptidase M)
- Tnf reporter robust z-score: -0.07
- fewer than 50 cells in well: enough cells in well
- Outcome: inactive

Ap3m1 (adaptor-related protein complex 3, mu 1 subunit)
- Tnf reporter robust z-score: 0.57
- fewer than 50 cells in well: enough cells in well
- Outcome: inactive

Gpcpd1 (glycerophosphocholine phosphodiesterase 1)
- fewer than 50 cells in well: fewer than 50 cells per well; well left out of calls
- Outcome: inactive

Otud6b (OTU domain containing 6B)
- Tnf reporter robust z-score: -0.9
- fewer than 50 cells in well: enough cells in well
- Outcome: inactive

Rpl32 (ribosomal protein L32)
- fewer than 50 cells in well: fewer than 50 cells per well; well left out of calls
- Outcome: inactive
